From publication PMC9512837
These are yes or no findings as the source states them, for the method shown. Some entries that bind do so weakly or less than the wild type.

Sequences of proteins named here, by UniProt entry; tags and fusion partners are left off. Residues count along the entry.
UniProt P29317, residues 24-976: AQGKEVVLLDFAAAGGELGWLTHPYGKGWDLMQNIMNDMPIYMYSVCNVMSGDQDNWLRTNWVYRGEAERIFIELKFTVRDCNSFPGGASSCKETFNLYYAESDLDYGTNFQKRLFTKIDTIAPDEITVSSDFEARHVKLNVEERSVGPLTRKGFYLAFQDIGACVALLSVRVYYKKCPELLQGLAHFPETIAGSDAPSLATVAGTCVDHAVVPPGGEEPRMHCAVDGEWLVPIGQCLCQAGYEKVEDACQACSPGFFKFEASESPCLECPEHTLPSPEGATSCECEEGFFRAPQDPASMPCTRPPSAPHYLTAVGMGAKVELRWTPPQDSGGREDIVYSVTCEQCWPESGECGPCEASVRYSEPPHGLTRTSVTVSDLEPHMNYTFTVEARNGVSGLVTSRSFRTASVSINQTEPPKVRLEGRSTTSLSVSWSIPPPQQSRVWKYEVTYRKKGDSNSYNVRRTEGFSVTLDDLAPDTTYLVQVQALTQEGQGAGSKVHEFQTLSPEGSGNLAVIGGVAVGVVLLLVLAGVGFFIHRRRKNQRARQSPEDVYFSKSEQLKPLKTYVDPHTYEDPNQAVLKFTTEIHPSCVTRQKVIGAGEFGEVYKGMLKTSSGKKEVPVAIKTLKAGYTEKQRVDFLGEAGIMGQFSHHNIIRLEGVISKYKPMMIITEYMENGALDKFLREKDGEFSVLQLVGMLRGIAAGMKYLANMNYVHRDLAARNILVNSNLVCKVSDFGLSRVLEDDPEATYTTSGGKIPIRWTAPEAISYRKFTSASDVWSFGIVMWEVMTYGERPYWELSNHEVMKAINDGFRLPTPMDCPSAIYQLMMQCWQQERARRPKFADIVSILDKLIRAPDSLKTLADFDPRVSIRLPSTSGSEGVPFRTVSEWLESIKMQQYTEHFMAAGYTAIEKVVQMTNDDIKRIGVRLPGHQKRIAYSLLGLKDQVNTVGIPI

Molecular target: EphA2-eYFP (UniProt P29317)
Experiment: fluorescence intensity fluctuation (FIF) spectrometry; augmented FIF on the high-intensity puncta of EphA2-eYFP found by the SLIC algorithm, pixels of at least four puncta combined into clusters; HEK293T cells treated with the ligands

binding: binds
Substance: EphA2-eYFP (from UniProt P29317 24-976) (receptor)
